Columns and labels:
Assay type in all cases: cell-based
[1] = test system: Staphlococcus saprophyticus; assay: paper disc diffusion susceptibility (Kirby-Bauer) method; details: S. saprophyticus, ciprofloxacin 5 μg on disc
Excerpt: (§1) The first test method to be applied was the paper disc diffusion susceptibility method. In this method a filter paper disc impregnated with a chemical is placed on agar, and the chemical will diffuse from the disc into the agar. If an organism is placed on the agar, it will not grow in the area around the disc if it is susceptible to the chemical. This area of no growth around the disc is known as the zone of inhibition. This disc diffusion method for antibiotic susceptibility is known as the Kirby-Bauer method. In testing the effectiveness of various antibiotics, all factors, e.g., the agar utilized, the depth of the agar, the amount of organism used, and incubation conditions, are maintained constant for the various organisms and antibiotics being tested. […] The size of the zone of inhibition of the particular antimicrobial substance may also be influenced by the diffusion capability of that substance.
(§2) In performing the disc diffusion method tests, a bacterial suspension having an inoculum density of approximately 1×10^8 CFU/ml (colony forming units) was added to 10 ml trypticase soy agar at 46° C. It was mixed thoroughly by vortexing and then poured into a plastic Petri dish. After hardening of the agar, filter paper discs (φ7 mm.) made from Whatman filter paper No. 1 that had been impregnated by the manufacturer, Becton Dickinson, Inc., with the suitable antibiotic, were placed on the agar. In this series of tests the ability of each antibiotic per se to control the growth of the bacteria was measured.
(§3) Another series of agar containing Petri dishes was then prepared using the same bacteria and density thereof as had been prepared for the prior test series. However, here hop compounds were also present in the agar. The hop extract, either lupulone, humulone or xanthohumol, was dissolved in ethanol. While certain of the hop components are only slightly soluble in water, they are very soluble in ethanol. An ethanol control was prepared in the same way.
(§4) The size of the inhibition zones was measured to the nearest mm.
(§5) The concentration of β-acid and xanthohumol is set forth in μg/ml. The zone of inhibition was measured in centimeters. […]

B. megaterium = assay: paper disc diffusion susceptibility method; details: ciprofloxacin 5 μg on disc
Excerpt: as §1, §2, §3, §4, §5

B. subtilis = assay: paper disc diffusion susceptibility method; details: ciprofloxacin 5 μg on disc
Excerpt: as §1, §2, §3, §4, §5

S. salivarius = assay: paper disc diffusion susceptibility method; details: ciprofloxacin 5 μg on disc
Excerpt: as §1, §2, §3, §4, §5

O=C(O)c1cn(C2CC2)c2cc(N3CCNCC3)c(F)cc2c1=O [ciprofloxacin, 1-cyclopropyl-6-fluoro-1,4-dihyro-4-oxo-7-(1-piperaznyl)-3-quinolinecarboxylic acid]
zone of inhibition, β-acid Avg ([1]; β-acid 0 μg/ml): 1.0 centimeters
zone of inhibition, β-acid Exp #1 ([1]; β-acid 0 μg/ml): 1.0 centimeters
zone of inhibition, β-acid Exp #2 ([1]; β-acid 0 μg/ml): 1.0 centimeters
zone of inhibition, β-acid Avg ([1]; β-acid 3 μg/ml): 1.4 centimeters
zone of inhibition, β-acid Exp #1 ([1]; β-acid 3 μg/ml): 1.5 centimeters
zone of inhibition, β-acid Exp #2 ([1]; β-acid 3 μg/ml): 1.3 centimeters
zone of inhibition, β-acid Avg (B. megaterium; β-acid 0 μg/ml): 0.85 centimeters
zone of inhibition, β-acid Exp #1 (B. megaterium; β-acid 0 μg/ml): 1.0 centimeters
zone of inhibition, β-acid Exp #2 (B. megaterium; β-acid 0 μg/ml): 0.7 centimeters
zone of inhibition, β-acid Avg (B. megaterium; β-acid 3 μg/ml): 1.25 centimeters
zone of inhibition, β-acid Exp #1 (B. megaterium; β-acid 3 μg/ml): 1.5 centimeters
zone of inhibition, β-acid Exp #2 (B. megaterium; β-acid 3 μg/ml): 1.0 centimeters
zone of inhibition, β-acid Avg (B. subtilis; β-acid 0 μg/ml): 1.05 centimeters
zone of inhibition, β-acid Exp #1 (B. subtilis; β-acid 0 μg/ml): 1.1 centimeters
zone of inhibition, β-acid Exp #2 (B. subtilis; β-acid 0 μg/ml): 0.9 centimeters
zone of inhibition, β-acid Avg (B. subtilis; β-acid 3 μg/ml): 1.45 centimeters
zone of inhibition, β-acid Exp #1 (B. subtilis; β-acid 3 μg/ml): 1.5 centimeters
zone of inhibition, β-acid Exp #2 (B. subtilis; β-acid 3 μg/ml): 1.4 centimeters
zone of inhibition, β-acid Avg (S. salivarius; β-acid 0 μg/ml): 0.7 centimeters
zone of inhibition, β-acid Exp #1 (S. salivarius; β-acid 0 μg/ml): 0.6 centimeters
zone of inhibition, β-acid Exp #2 (S. salivarius; β-acid 0 μg/ml): 0.8 centimeters
zone of inhibition, β-acid Avg (S. salivarius; β-acid 30 μg/ml): 1.2 centimeters
zone of inhibition, β-acid Exp #1 (S. salivarius; β-acid 30 μg/ml): 1.3 centimeters
zone of inhibition, β-acid Exp #2 (S. salivarius; β-acid 30 μg/ml): 1.1 centimeters
